Source: PMC5751800, “Functional characterization of chitin-binding lectin from Solanum integrifolium containing anti-fungal and insecticidal activities” (BMC Plant Biology, 2018)

test system: T1, CBL (chitin-binding lectin from S. integrifolium; recombinant CBL); test: hemagglutination inhibition, trypsinized human erythrocytes; design: species or system Solanum aethiopicum; conditions: minimum concentration for complete inhibition of hemagglutination; PBS, room temperature, 4% RBC; recombinant lectin by context (methods say only lectin samples)
T1 construct: natural CBL from fruit 30 and 20 kDa on SDS-PAGE, about 66 kDa non-reducing

Compared with `N[C@H]1C(O)O[C@H](CO)[C@@H](O)[C@@H]1O` (stereo partly drawn) [D-glucosamine], `CC(=O)N[C@H]1C(O)O[C@H](CO)[C@H](O)[C@@H]1O` (stereo partly drawn) [GalNAc] is 4-fold lower in “^aMIC” value: 100 mM for the first, 25 mM for the second.

In the case of `CC(=O)N[C@H]1C(O)O[C@H](CO)[C@@H](O)[C@@H]1O` (stereo partly drawn) [GlcNAc], the “^aMIC” value is reported as 3.12 mM.
